Assay results reported in US20090304718A1 (Boehringer Ingelheim, published 2009).
Results are given in words; binding and its absence hold for the method and conditions named. Some entries that bind do so weakly or less than the wild type.

Protein sequences, listed by entry. Tags and fused reporters are not part of them. Residues count along the entry.
UniProt Q12884, residues 26-760: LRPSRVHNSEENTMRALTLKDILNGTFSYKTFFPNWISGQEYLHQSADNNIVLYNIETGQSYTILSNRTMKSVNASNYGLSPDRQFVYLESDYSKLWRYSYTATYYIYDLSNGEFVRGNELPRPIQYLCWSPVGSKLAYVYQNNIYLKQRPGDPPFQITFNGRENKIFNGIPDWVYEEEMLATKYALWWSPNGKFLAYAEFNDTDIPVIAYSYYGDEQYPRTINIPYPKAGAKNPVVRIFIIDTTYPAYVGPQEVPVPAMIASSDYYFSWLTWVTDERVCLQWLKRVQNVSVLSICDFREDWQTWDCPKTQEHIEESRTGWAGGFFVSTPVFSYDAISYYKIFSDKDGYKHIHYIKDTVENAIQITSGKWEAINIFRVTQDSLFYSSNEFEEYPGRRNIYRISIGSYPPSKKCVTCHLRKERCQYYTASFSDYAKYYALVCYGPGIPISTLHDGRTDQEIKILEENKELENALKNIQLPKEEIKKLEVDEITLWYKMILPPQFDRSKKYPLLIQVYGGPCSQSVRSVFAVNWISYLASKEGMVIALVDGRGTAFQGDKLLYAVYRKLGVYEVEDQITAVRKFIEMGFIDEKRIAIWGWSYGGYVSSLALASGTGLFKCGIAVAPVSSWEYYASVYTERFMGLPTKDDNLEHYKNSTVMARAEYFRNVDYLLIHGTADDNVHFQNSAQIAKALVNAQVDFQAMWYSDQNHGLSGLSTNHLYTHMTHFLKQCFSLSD

Target: recombinant human FAP (human) (UniProt Q12884)
Experiment: SPR (Biacore 2000), recombinant human FAP as analyte

| Binder | binding |
| --- | --- |
| humanized MFP5 antibody hVH01+hVK03-version1 (antibody, V domains shown) VH: QVQLVQSGAEVKKPGASVKVSCKASGYTFTNNGINWLRQAPGQGLEWMGEIYPRSTNTLYAQKFQGRVTITADRSSNTAYMELSSLRSEDTAVYFCARTLTAPFAFWGQGTLVTVSS VL: QIVLTQSPATLSLSPGERATLSCSASSGVNFMHWYQQKPGQAPRRLIFDTSKLASGIPARFSGSGSGTDYTLTISSLEPEDFAVYYCQQWSFNPPTFGQGTKVEIKR | binds |
| humanized MFP5 antibody hVH01+hVK03-version2 (antibody, V domains shown) VH: QVQLVQSGAEVKKPGASVKVSCKASGYTFTNNGINWLRQAPGQGLEWMGEIYPRSTNTLYAQKFQGRVTITADRSSNTAYMELSSLRSEDTAVYFCARTLTAPFAFWGQGTLVTVSS VL: QIVLTQSPATLSLSPGERATLSCSASSGVNFMHWYQQKPGQAPKRLIFDTSKLASGVPARFSGSGSGTDYTLTISSLEPEDFAVYYCQQWSFNPPTFGQGTKVEIKR | binds |
